# Results are given in words; binding and its absence hold for the method and conditions named.
# Protein sequences, listed by entry. Tags and fused reporters are not part of them. Residues count along the entry.
# UniProt P04977, 35-221: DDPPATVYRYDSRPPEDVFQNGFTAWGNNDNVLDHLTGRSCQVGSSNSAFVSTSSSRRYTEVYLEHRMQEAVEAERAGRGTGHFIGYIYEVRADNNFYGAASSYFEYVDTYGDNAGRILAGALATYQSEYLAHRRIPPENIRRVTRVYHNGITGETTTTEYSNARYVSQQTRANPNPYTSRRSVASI
# Target: recombinant pertussis toxin S1 subunit (rPtxS1), N-terminally HIS-tagged, D35-I221 (Bordetella pertussis strain Tohama I) (UniProt P04977)
# Test: SEC
substance,measurement,value
"recombinant pertussis toxin S1 subunit (rPtxS1), N-terminally HIS-tagged, D35-I221 (from UniProt P04977 35-221) (domain or fragment)",binding,no binding (tested: 100 µg of rPtxS1)
